Test results published in PubChem BioAssay AID318 (DTP/NCI, 2004).
The list is a part of this screen's results and no random one: its compounds were picked by chemical class. Not every dose and run of a compound is shown. T/C is the treated group as % of the vehicle group. Where survival is the endpoint, this PubChem deposit counts one and a half times the control or more as active, and values a quarter to a half above the control carry no call in these data; other NCI protocols may use other cut-offs. Some T/C values are marked as having no survivor count here; that says nothing about deaths at the dose. Schedules are NCI's codes, read here as Q, the interval in days (D) or hours (H), X, the number of doses. Additions like (4×) stand for listed records that agree. Some doses were run more than once; the results are listed from low to high.

Test system: BDF1 mice, P815 leukemia ip, survival T/C
Assay: NCI In Vivo Anticancer Drug Screen. Data for tumor model P815 Mast Cell Leukemia (Ascitic) (intraperitoneal) in B6D2F1 (BDF1) mice
Settings: T/C endpoint: survival time, mean or median, schedule: Q01DX010 (ip), vehicle: saline, higher T/C = longer survival
Procedure: The antitumor activity of compounds was measured in mice bearing transplantable tumors. Survival or tumor size were measured and the results are expressed as the measurement made in the treated group (T) divided by the measurement made in the vehicle treated control group (C). The tumor model used in this assay is P815 Mast Cell Leukemia (Ascitic) (intraperitoneal) in B6D2F1 (BDF1) mice

## CN(CCCl)CCCl
dose: 0.13 mg/kg/injection
  T/C: 154 % of control [survivor count not shown] (2×)
dose: 0.25 mg/kg/injection
  T/C: 145 [survivor count not shown] and 163 % of control [survivor count not shown]
dose: 0.5 mg/kg/injection
  T/C: 168 [survivor count not shown] and 181 % of control [survivor count not shown]
dose: 1.0 mg/kg/injection
  T/C: 86 [survivor count not shown] and 95 % of control [survivor count not shown]
